Measurements: paper doi:10.1101/2025.05.30.657104
These are yes or no findings as the source states them, for the method shown. In cells and extracts the contact can be indirect. These calls come from enrichment with a bait or labelling near it, and not all partners need be listed. For some assays here: No binding means not detected with the bait.

Amino acid sequences for entries named in this document (tags omitted).
UniProt Q9Y2X7: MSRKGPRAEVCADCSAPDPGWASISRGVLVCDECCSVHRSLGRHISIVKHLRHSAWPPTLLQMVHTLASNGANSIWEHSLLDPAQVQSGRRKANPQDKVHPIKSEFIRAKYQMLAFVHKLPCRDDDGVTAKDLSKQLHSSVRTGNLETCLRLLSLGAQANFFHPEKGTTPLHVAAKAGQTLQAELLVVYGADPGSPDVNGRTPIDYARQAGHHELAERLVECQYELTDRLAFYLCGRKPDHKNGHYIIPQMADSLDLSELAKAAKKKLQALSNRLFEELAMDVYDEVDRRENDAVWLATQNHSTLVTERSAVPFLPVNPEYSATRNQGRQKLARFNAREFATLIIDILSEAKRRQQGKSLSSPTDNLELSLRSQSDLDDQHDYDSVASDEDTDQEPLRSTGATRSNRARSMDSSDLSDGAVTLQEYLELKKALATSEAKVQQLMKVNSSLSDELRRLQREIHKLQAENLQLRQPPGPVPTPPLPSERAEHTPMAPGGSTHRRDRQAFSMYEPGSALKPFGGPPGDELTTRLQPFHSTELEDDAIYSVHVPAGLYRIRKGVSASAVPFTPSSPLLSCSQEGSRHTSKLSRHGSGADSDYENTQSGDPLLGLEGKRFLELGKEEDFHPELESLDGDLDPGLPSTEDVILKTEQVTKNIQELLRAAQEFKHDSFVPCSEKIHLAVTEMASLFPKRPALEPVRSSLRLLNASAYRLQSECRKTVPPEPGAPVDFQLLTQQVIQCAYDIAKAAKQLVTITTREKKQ

Key:
[1] = biological target: Protein kinase C alpha (PKCα) WT (human) (UniProt P17252); assay: affinity purification with mass spectrometry
[2] = biological target: Protein kinase C alpha D463H (PKCα_(D463H)) (human) (UniProt P17252); assay: affinity purification with mass spectrometry

G-protein coupled receptor kinase interacting protein 1 (GIT1) (from UniProt Q9Y2X7 1-761)
binding [1]: binds | binding [2]: no binding
